For seven molecules, binding results are on record in patent publication US20240285753A1.

These are yes or no findings as the source states them, for the method shown. Binding calls can cover weak binding; strength is not graded here.

First the molecules themselves.
B1: DH1491 (antibody, V domains shown)
VH: QVQLVQSGGGLVQPGGSLRLSCATSGFNFRAFAMSWVRQAPGKGLEWAAVMSGTDDGTYYVESVKGRFTIFRDNSENTVYLQMNSLRADDSAIYYCAKGTLGHCSGVDCYYLDYWGRGTLVTVSS
VL: DIVLTQSPATLSLSPGERATLSCRASQSVGTYVAWYQHKVGQAPRLLIYDASTRATDIPARFSGSGSGTDFTLTITSLEPEDVAIYYCQQRVNLVTFGGGTKLEIK
B2: DH1508 (antibody, V domains shown)
VH: QVQLVESGGGVVQPGKSLKLSCAASGFTFSTYSMHWVRQAPGKGLEWVAIISYDGRNKYYANSVKGRFTISRDNSKNTLYLEINNLRPQDTAVYYCATDASNVEVPGKFAPLDKWGQGTLVTVSS
VL: EIVMTQSPATLSVSPGERATLSCRASQSVSSDLAWYQQKPGQAPRLLIYGATTRATGVPARFSGSGSGAEFTLTISSLQSGDFAVYYCQQYNDWPLITFGQGTRLEIK
B3: DH1499 (antibody, V domains shown)
VH: QVQLQESGGGLVKPGGSLRLSCAASGFTFSSYSMNWVRQAPGKGLEWVSSISSSSSYIYYADSVKGRFTISRDNAKNSLYLQMNSLRAEDTAVYYCARGIIDYGDYFDYWGQGTLVTVSS
VL: EIVLTQSPDTLSLSPGERATVSCRASQSVGAGYVAWYQQRPGQPPRLLIYGASVRATGIPDRFSGSGSGTDFSLTINRVEPEDFAVYYCQNYASSPPRYTFGQGTKLEIK
B4: DH1495 (antibody, V domains shown)
VH: EVQLVESGGGLVQPGGSLRLSCAASGFTFDNYAMGWVRQPPGKGLEWVSSFSGRGVSTYYADSVKGRFTVSRDSSKNTLFLQMNYLRVEDTAVYYCATYPYDILTGYYGAFDYWGQGALVTVSS
VL: DIQLTQSPSTLSASVGDRVTITCRASQTIDTWLAWYQQKPGKAPKLLIYGASSLQSGVPSRFSASGSGTEFTLTISSLQPDDFAIYYCQQYKDYSTFGQGSKVEFM
B5: DH1497 (antibody, V domains shown)
VH: QVQLVQSGGGLAQPGESLRLSCAASGFTFSSYAMTWVRQAPGKGLEWVSSISGKGENIEYAESVKGRFTISRDNAKNTVDLEMNSLRAEDTATYFCAKHIYGAFIVVPNTLYDALDVWGQATKVTVSS
VL: EIVLTQSPGTLSLSPGERATLSCRASQSVSRNYLAWYQQKPGQAPRILVYDASNRAIGIPDRFSGSGSGTDFTLTISRLEPEDFAVYYCQQYGSSPGTFGQGTRLEIK
B6: DH1501.3 (antibody, V domains shown)
VH: QVQLVQSGAEVKKPGASVRLSCKASGDTFTNEYVQWVRQAPGQGLEWMGLINPSGSGTAFARNFQGRVSMTRDTSTRTVYMDLTSLRYEDTAVYYCARMSRAGTFDLWGQGTMVTVSS
VL: EIVLTQSPDTLSLSLGERATLFCRASETIDSRYLAWYQQKPGRAPRLLMSGTSVRATGIPDRFSGSGSGTDFTLTITRLEPEDFAVYYCQQYGSSPPRYTFGQGTKLAMK
B7: DH1496 (antibody, V domains shown)
VH: QVQLQQWGAGLLKPSETLSLTCSFYGGSFSGYCWSWIRQSPGKGLEWIGEINHSGSTNYNPSLKTRVTILIDTSNNQFSLRLSSVTAADTAVYYCARERAIRRCTSTSCYRVGGVAGLDVWGQGTTVSVSS
VL: DIVMTQSPSSLSASVGDRVTITCQASRDIYKYLNWYQQKPGQAPKLLISDASNLETGVPSRFSGSGSGTDFTFTISSLQPEDIAAYYCQQYDNPLITFGQGTRLEIK

The target in this experiment is OC43 spike (2P) (human coronavirus OC43). The experiment can be described thus: ELISA, coated spike, mAb titrated. Background: In an ELISA, binding on a coated surface is turned into a signal by an enzyme label.
As to B1, the binding entry is reported as “binds”. On to B2, for which the binding result was “binds”. As for B3, the binding entry is on record as “binds”.

On to B4, for which the binding result is “binds”. With B5 the entry was “binds”.

With B6, the binding result is recorded as “binds”.

On to B7, for which the binding result was “binds”.
